{"source": "patent US5411965A", "about": "“Use of delta opioid receptor antagonists to treat cocaine abuse” (Arizona Board of Regents, priority 1993, dated 1995)", "assay_type": "in vivo, rats", "conditions": "morphine 4.0 mg/kg", "source_text": "When rats are fixed with chronically indwelling bipolar electrodes for electrical stimulation of the medial forebrain bundle, they will press levers for brief durations of stimulation. The higher the intensity of stimulation, the greater the pressing. […] These relationships plus extant theory provide the rationale for using pressing for brain stimulation as a means of assessing the reinforcing effects of drugs and assessing which drugs might affect another drug's reinforcing effects.\nThe particulars of the procedures used herein are briefly summarized. Further information is in Reid (cited above) and Reid et al. (Life Sciences, 52, PL67-71 (1993)). Rats were fixed with chronically indwelling bipolar electrodes. Using standard stereotaxic methods, which includes full anesthesia, the tips of the electrode were aimed to stimulate the medial forebrain bundle as it traverses the lateral hypothalamus. With the skull held in a stereotaxic instrument so that a plane between bregma and lamba was perpendicular to the shaft of the electrode, the following stereotaxic coordinates were used: 3.5 mm posterior to brema, 1.6 mm lateral to the midline, and 8.6 mm below the surface of the skull.\nThe apparatus of these tests was a Skinner box (24×30 ×38 cm) equipped with a lever (2.5×2 cm). […]", "note": "Like-named read-outs stand apart in the source and are kept apart here.", "data": [{"smiles": "CN1CC[C@]23c4c5ccc(O)c4O[C@H]2[C@@H](O)C=C[C@H]3[C@H]1C5", "note": "[Morphine, reference compound]", "values": [{"measurement": "pressing for brain stimulation, morphine alone", "value": "leads to a marked increase in pressing compared to pressing under the influence of placebo"}, {"measurement": "pressing for brain stimulation, morphine alone", "setting": "listed as morphine", "value": "increased pressing for brain stimulation"}]}]}
